Here are results for two molecules from PMC2853562.

The target of the experiment is Flag-MKK7. Put plainly: co-IP; Flag-MKK7 co-expressed with CAR-V5 and/or GADD45B-V5 in HEK293T cells; lysates incubated with anti-Flag M2-agarose 1 h at 4°C; Western blot with anti-V5 and anti-Flag.

These are yes or no findings as the source states them, for the method shown. In cells and extracts the contact can be indirect. A result given as binding can be weak or reduced; the word gives no strength. Sequences can lack the tags named with a protein.

B1: GADD45B-V5 (protein, UniProt P22339 1-160)
chain: MTLEELVASDNAVQKMQAVTAAVEQLLVAAQRQDRLTVGVYEAAKLMNVDPDSVVLCLLAIDEEEEDDIALQIHFTLIQSFCCDNDIDIVRVSGMQRLAQLLGEPAETLGTTEARDLHCLLVTNCHTDSWKSQGLVEVASYCEESRGNNQWVPYISLEER
Turning to B1, the binding result is given as “binds”.

B2: CAR-V5 (receptor, UniProt O35627 1-358)
chain: MTAMLTLETMASEEEYGPRNCVVCGDRATGYHFHALTCEGCKGFFRRTVSKTIGPICPFAGRCEVSKAQRRHCPACRLQKCLNVGMRKDMILSAEALALRRARQAQRRAEKASLQLNQQQKELVQILLGAHTRHVGPMFDQFVQFKPPAYLFMHHRPFQPRGPVLPLLTHFADINTFMVQQIIKFTKDLPLFRSLTMEDQISLLKGAAVEILHISLNTTFCLQTENFFCGPLCYKMEDAVHAGFQYEFLESILHFHKNLKGLHLQEPEYVLMAATALFSPDRPGVTQREEIDQLQEEMALILNNHIMEQQSRLQSRFLYAKLMGLLADLRSINNAYSYELQRLEELSAMTPLLGEICS
With B2, the binding entry is reported as “binds”.
